Our source for the binding values is publication PMC3776363.

Amino acid sequences for entries named in this document (tags omitted).
UniProt P09429: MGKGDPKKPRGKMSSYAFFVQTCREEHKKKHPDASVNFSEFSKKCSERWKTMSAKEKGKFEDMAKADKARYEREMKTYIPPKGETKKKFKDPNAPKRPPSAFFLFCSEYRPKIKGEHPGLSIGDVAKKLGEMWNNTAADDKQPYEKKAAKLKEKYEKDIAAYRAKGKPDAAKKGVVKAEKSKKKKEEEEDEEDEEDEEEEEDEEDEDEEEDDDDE
UniProt P07737: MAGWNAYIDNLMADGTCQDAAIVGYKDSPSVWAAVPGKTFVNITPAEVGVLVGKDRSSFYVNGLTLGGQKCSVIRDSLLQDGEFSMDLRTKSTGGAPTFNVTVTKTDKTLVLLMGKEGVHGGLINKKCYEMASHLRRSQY
UniProt P04406: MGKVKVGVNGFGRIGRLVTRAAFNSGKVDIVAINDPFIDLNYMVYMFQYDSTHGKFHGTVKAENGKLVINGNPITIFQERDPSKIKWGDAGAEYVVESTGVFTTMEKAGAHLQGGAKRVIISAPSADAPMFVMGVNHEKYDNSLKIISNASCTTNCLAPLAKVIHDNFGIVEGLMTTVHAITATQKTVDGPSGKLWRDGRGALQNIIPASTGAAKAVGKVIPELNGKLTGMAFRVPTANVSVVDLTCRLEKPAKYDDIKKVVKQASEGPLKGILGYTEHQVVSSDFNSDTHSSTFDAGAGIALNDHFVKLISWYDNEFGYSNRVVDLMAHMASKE
UniProt P60228: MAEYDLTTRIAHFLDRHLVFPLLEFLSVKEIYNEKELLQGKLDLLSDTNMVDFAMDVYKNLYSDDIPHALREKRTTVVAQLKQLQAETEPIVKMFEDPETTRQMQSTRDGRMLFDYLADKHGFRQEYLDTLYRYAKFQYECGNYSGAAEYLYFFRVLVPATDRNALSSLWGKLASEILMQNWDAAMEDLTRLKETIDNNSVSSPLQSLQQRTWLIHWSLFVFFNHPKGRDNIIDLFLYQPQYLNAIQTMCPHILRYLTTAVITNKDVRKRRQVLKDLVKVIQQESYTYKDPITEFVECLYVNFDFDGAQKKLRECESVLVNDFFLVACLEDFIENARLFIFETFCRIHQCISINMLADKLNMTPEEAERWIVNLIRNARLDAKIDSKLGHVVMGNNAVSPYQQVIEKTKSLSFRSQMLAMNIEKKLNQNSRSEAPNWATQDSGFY
UniProt Q06323: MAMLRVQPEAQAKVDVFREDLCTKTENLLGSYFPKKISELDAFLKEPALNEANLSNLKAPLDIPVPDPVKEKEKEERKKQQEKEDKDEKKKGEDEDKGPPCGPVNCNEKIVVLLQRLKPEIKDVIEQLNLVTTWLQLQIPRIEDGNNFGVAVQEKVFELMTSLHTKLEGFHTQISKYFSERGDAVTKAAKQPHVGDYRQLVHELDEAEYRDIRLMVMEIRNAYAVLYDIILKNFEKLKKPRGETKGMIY
UniProt Q01518: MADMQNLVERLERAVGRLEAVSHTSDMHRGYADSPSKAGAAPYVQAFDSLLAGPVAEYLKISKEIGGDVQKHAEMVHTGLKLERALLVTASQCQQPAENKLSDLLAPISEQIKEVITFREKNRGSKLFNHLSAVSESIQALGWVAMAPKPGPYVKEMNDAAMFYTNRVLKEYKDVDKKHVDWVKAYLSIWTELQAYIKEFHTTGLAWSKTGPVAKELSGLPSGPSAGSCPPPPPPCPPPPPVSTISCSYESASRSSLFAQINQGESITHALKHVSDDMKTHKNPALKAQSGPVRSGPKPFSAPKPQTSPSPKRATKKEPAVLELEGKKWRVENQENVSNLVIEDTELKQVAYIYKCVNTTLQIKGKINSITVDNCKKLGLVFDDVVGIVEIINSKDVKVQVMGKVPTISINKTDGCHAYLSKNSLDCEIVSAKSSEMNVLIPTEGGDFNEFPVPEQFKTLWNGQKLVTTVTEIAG
UniProt A6NMY6: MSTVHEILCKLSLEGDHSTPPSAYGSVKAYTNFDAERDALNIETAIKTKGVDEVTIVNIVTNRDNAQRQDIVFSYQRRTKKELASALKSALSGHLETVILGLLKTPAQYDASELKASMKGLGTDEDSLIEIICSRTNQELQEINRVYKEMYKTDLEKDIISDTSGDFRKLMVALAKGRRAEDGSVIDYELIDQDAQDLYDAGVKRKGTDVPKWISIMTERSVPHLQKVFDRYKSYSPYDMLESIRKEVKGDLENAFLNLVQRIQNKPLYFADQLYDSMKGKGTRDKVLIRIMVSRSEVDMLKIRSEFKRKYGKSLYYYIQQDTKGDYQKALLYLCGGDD
UniProt P63104: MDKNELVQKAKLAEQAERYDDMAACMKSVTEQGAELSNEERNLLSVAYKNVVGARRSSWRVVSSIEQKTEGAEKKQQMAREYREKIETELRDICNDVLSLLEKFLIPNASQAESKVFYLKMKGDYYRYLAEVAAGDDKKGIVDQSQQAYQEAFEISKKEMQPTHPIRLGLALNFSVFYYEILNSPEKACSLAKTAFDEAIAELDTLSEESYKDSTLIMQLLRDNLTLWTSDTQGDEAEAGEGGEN
UniProt O60812: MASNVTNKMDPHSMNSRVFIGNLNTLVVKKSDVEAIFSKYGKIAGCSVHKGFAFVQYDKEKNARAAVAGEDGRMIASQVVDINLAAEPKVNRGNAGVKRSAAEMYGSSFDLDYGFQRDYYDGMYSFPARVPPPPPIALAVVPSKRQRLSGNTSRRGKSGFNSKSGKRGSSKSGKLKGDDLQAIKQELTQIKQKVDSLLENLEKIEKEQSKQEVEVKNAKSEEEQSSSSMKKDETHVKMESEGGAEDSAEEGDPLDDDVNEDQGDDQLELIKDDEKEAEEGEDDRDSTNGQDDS

Results are given in words; binding and its absence hold for the method and conditions named. In cells and extracts the contact can be indirect. Here binding means that the protein was enriched with, or labelled near, the bait; the list need not be complete.

The labels stand for the following.
T1: Gadd45a (growth arrest and DNA damage-inducible gene) (human (endogenous in CD4+ T cells)) (UniProt P24522)
T1 sequence: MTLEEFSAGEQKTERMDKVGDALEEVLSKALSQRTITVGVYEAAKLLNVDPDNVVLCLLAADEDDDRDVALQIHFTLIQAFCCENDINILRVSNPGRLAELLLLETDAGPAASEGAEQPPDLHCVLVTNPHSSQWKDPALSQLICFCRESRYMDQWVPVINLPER

B1: Isoform 1 of Ankyrin repeat and SOCS box protein 13 (protein, UniProt Q8WXK3 1-278)
chain: MEPRAADGCFLGDVGFWVERTPVHEAAQRGESLQLQQLIESGACVNQVTVDSITPLHAASLQGQARCVQLLLAAGAQVDARNIDGSTPLCDACASGSIECVKLLLSYGAKVNPPLYTASPLHEACMSGSSECVRLLIDVGANLEAHDCHFGTPLHVACAREHLDCVKVLLNAGANVNAAKLHETALHHAAKVKNVDLIEMLIEFGGNIYARDNRGKKPSDYTWSSSAPAKCFEYYEKTPLTLSQLCRVNLRKATGVRGLEKIAKLNIPPRLIDYLSYN
B2: U3 small nucleolar ribonucleoprotein protein IMP3 (protein, UniProt Q9NV31 1-184)
chain: MVRKLKFHEQKLLKQVDFLNWEVTDHNLHELRVLRRYRLQRREDYTRYNQLSRAVRELARRLRDLPERDQFRVRASAALLDKLYALGLVPTRGSLELCDFVTASSFCRRRLPTVLLKLRMAQHLQAAVAFVEQGHVRVGPDVVTDPAFLVTRSMEDFVTWVDSSKIKRHVLEYNEERDDFDLEA
B3: Isoform 1 of Serine/threonine-protein phosphatase 2A 55 (protein, UniProt Q00005 1-443)
chain: MEEDIDTRKINNSFLRDHSYATEADIISTVEFNHTGELLATGDKGGRVVIFQREQESKNQVHRRGEYNVYSTFQSHEPEFDYLKSLEIEEKINKIRWLPQQNAAYFLLSTNDKTVKLWKVSERDKRPEGYNLKDEEGRLRDPATITTLRVPVLRPMDLMVEATPRRVFANAHTYHINSISVNSDYETYMSADDLRINLWNFEITNQSFNIVDIKPANMEELTEVITAAEFHPHHCNTFVYSSSKGTIRLCDMRASALCDRHTKFFEEPEDPSNRSFFSEIISSISDVKFSHSGRYIMTRDYLTVKVWDLNMENRPIETYQVHDYLRSKLCSLYENDCIFDKFECVWNGSDSVIMTGSYNNFFRMFDRNTKRDVTLEASRENSKPRAILKPRKVCVGGKRRKDEISVDSLDFSKKILHTAWHPSENIIAVAATNNLYIFQDKVN
B4: Lysozyme C (protein, UniProt P61626 19-148)
chain: KVFERCELARTLKRLGMDGYRGISLANWMCLAKWESGYNTRATNYNAGDRSTDYGIFQINSRYWCNDGKTPGAVNACHLSCSALLQDNIADAVACAKRVVRDPQGIRAWVAWRNRCQNRDVRQYVQGCGV
B5: Erythrocyte band 7 integral membrane protein (protein, UniProt P27105 1-288)
chain: MAEKRHTRDSEAQRLPDSFKDSPSKGLGPCGWILVAFSFLFTVITFPISIWMCIKIIKEYERAIIFRLGRILQGGAKGPGLFFILPCTDSFIKVDMRTISFDIPPQEILTKDSVTISVDGVVYYRVQNATLAVANITNADSATRLLAQTTLRNVLGTKNLSQILSDREEIAHNMQSTLDDATDAWGIKVERVEIKDVKLPVQLQRAMAAEAEASREARAKVIAAEGEMNASRALKEASMVITESPAALQLRYLQTLTTIAAEKNSTIVFPLPIDMLQGIIGAKHSHLG
B6: Serine/arginine-rich splicing factor 3 (protein, UniProt P84103 1-164)
chain: MHRDSCPLDCKVYVGNLGNNGNKTELERAFGYYGPLRSVWVARNPPGFAFVEFEDPRDAADAVRELDGRTLCGCRVRVELSNGEKRSRNRGPPPSWGRRPRDDYRRRSPPPRRRSPRRRSFSRSRSRSLSRDRRRERSLSRERNHKPSRSFSRSRSRSRSNERK
B7: Tumor necrosis factor alpha-induced protein 8-like protein 3 (protein, UniProt Q5GJ75 1-292)
chain: MGKPRQNPSTLVSTLCEAEPKGKLWVNGYAGTQGTRDATLQTRLIPLSFHLQRGKGLAAPLSALSAPRLPERPADGRVAVDAQPAARSMDSDSGEQSEGEPVTAAGPDVFSSKSLALQAQKKILSKIASKTVANMLIDDTSSEIFDELYKVTKEHTHNKKEAHKIMKDLIKVAIKIGILYRNNQFSQEELVIVEKFRKKLNQTAMTIVSFYEVEYTFDRNVLSNLLHECKDLVHELVQRHLTPRTHGRINHVFNHFADVEFLSTLYSLDGDCRPNLKRICEGINKLLDEKVL
B8: Ras-related protein Rab-27B (protein, UniProt O00194 1-218)
chain: MTDGDYDYLIKLLALGDSGVGKTTFLYRYTDNKFNPKFITTVGIDFREKRVVYNAQGPNGSSGKAFKVHLQLWDTAGQERFRSLTTAFFRDAMGFLLMFDLTSQQSFLNVRNWMSQLQANAYCENPDIVLIGNKADLPDQREVNERQARELADKYGIPYFETSAATGQNVEKAVETLLDLIMKRMEQCVEKTQIPDTVNGGNSGNLDGEKPPEKKCIC

This test concerns the target T1, Gadd45a (growth arrest and DNA damage-inducible gene) (human (endogenous in CD4+ T cells)). The experiment in a line: affinity purification with mass spectrometry; CD4+ T-cell lysates incubated overnight at 4°C with rabbit anti-human Gadd45a antibody or isotype-matched rabbit IgG, protein A/G PLUS-agarose beads 1 hour at 4°C; SDS-PAGE, Coomassie blue, bands of ~30, ~26 and ~55 kDa excised, LS-MS/MS.
Take “High mobility group protein B1 (from UniProt P09429 1-215)”: the binding result is on record as “binds”.

On to Profilin-1 (from UniProt P07737 1-140), for which the binding result is reported as “binds”.

For “Glyceraldehyde-3-phosphate dehydrogenase (from UniProt P04406 1-335)”, the binding result is “binds”.

“Eukaryotic translation initiation factor 3 subunit E (from UniProt P60228 1-445)”: the binding result is “binds”.

In the case of “cDNA FLJ56389, highly similar to Elongation factor 1-gamma (human (endogenous in CD4+ T cells))”, the binding result was “binds”.

Consider “Proteasome activator complex subunit 1 (from UniProt Q06323 1-249)”, for which the binding entry is reported as “binds”.

As for “Isoform 1 of Adenylyl cyclase-associated protein 1 (from UniProt Q01518 1-475)”, the binding entry is “binds”.

As to “Putative annexin A2-like protein (from UniProt A6NMY6 1-339)”, the binding entry is given as “binds”.

For “14-3-3 protein zeta/delta (from UniProt P63104 1-245)”, the binding entry is reported as “binds”.

Regarding “Heterogeneous nuclear ribonucleoprotein C-like 1 (from UniProt O60812 1-293)”, the binding entry is “binds”.

As to B1, the binding result is reported as “binds”.

Consider B2, for which the binding result is “binds”.

On to B3, for which the binding result is “binds”.

On to B4, for which the binding entry was “binds”.

As for B5, the binding entry is listed as “binds”.

Consider B6, for which the binding result is “binds”.

Consider B7, for which the binding entry is “binds”.

Consider B8, for which the binding result is “binds”.
